Experimental data reported in PMC5740878.
These are yes or no findings as the source states them, for the method shown. Binding calls can cover weak binding; strength is not graded here. Where a sequence is shown, tags or fusion partners need not be part of it.

The chains behind the UniProt entries cited, without tags or fusion partners. Where a name states a change or a piece, a line headed by the entry shows the natural chain unless it says otherwise.
UniProt Q92993: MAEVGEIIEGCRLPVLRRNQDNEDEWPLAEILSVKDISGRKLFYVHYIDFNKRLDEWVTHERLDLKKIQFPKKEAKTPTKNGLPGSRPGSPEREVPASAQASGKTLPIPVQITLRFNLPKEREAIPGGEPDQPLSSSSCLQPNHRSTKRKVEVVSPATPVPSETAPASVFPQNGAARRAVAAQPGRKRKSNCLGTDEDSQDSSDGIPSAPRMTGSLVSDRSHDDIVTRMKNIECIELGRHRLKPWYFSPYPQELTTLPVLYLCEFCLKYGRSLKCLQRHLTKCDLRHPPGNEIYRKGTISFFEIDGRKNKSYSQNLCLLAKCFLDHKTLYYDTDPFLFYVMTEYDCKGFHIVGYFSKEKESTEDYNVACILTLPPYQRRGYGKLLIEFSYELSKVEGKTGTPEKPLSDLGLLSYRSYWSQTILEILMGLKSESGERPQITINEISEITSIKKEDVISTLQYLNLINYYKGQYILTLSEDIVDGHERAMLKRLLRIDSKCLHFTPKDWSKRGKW

How the values were obtained:
Assay in all cases: pull-down; His-tagged TIP60 WT or mutants immobilised on Ni-NTA agarose beads; equal quantity of GST-UHRF1 added in PBS with 30 mM imidazole and 0.1% triton; 150 mM NaCl; five washes; SDS-PAGE and Western blot; both purified
[1] = target: His-tagged TIP60 ∆CRD (chromodomain deletion) (UniProt Q92993)
[2] = target: His-tagged TIP60 ∆HAT (histone acetyltransferase domain deletion) (UniProt Q92993)
[3] = target: His-tagged TIP60 ∆ZnFr (zinc finger deletion) (UniProt Q92993)

Measured: binding

B1: GST-UHRF1 (protein, UniProt Q96T88 1-793)
chain: MWIQVRTMDGRQTHTVDSLSRLTKVEELRRKIQELFHVEPGLQRLFYRGKQMEDGHTLFDYEVRLNDTIQLLVRQSLVLPHSTKERDSELSDTDSGCCLGQSESDKSSTHGEAAAETDSRPADEDMWDETELGLYKVNEYVDARDTNMGAWFEAQVVRVTRKAPSRDEPCSSTSRPALEEDVIYHVKYDDYPENGVVQMNSRDVRARARTIIKWQDLEVGQVVMLNYNPDNPKERGFWYDAEISRKRETRTARELYANVVLGDDSLNDCRIIFVDEVFKIERPGEGSPMVDNPMRRKSGPSCKHCKDDVNRLCRVCACHLCGGRQDPDKQLMCDECDMAFHIYCLDPPLSSVPSEDEWYCPECRNDASEVVLAGERLRESKKKAKMASATSSSQRDWGKGMACVGRTKECTIVPSNHYGPIPGIPVGTMWRFRVQVSESGVHRPHVAGIHGRSNDGAYSLVLAGGYEDDVDHGNFFTYTGSGGRDLSGNKRTAEQSCDQKLTNTNRALALNCFAPINDQEGAEAKDWRSGKPVRVVRNVKGGKNSKYAPAEGNRYDGIYKVVKYWPEKGKSGFLVWRYLLRRDDDEPGPWTKEGKDRIKKLGLTMQYPEGYLEALANREREKENSKREEEEQQEGGFASPRTGKGKWKRKSAGGGPSRAGSPRRTSKKTKVEPYSLTAQQSSLIREDKSNAKLWNEVLASLKDRPASGSPFQLFLSKVEETFQCICCQELVFRPITTVCQHNVCKDCLDRSFRAQVFSCPACRYDLGRSYAMQVNQPLQTVLNQLFPGYGNGR
binds: all assays above
